Test results published in article PMC7496687.
Results are given in words; binding and its absence hold for the method and conditions named. Some entries that bind do so weakly or less than the wild type.

Sequences of proteins named here, by UniProt entry; tags and fusion partners are left off.
UniProt P70604: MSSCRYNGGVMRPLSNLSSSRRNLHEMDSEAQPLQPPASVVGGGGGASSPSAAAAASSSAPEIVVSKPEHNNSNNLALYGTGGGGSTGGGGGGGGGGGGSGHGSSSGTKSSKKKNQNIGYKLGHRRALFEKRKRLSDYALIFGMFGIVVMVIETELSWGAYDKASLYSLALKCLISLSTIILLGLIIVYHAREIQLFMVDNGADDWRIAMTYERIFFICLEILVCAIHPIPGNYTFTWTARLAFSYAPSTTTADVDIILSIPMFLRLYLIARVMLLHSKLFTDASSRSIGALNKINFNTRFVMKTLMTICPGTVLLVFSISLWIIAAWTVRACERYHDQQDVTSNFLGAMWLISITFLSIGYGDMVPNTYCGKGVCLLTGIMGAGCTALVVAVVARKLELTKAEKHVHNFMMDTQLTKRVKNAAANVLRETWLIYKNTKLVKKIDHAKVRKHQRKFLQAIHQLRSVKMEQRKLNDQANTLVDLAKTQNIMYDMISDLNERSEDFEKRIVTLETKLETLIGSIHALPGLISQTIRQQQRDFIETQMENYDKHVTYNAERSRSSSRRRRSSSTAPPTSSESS
UniProt P22002: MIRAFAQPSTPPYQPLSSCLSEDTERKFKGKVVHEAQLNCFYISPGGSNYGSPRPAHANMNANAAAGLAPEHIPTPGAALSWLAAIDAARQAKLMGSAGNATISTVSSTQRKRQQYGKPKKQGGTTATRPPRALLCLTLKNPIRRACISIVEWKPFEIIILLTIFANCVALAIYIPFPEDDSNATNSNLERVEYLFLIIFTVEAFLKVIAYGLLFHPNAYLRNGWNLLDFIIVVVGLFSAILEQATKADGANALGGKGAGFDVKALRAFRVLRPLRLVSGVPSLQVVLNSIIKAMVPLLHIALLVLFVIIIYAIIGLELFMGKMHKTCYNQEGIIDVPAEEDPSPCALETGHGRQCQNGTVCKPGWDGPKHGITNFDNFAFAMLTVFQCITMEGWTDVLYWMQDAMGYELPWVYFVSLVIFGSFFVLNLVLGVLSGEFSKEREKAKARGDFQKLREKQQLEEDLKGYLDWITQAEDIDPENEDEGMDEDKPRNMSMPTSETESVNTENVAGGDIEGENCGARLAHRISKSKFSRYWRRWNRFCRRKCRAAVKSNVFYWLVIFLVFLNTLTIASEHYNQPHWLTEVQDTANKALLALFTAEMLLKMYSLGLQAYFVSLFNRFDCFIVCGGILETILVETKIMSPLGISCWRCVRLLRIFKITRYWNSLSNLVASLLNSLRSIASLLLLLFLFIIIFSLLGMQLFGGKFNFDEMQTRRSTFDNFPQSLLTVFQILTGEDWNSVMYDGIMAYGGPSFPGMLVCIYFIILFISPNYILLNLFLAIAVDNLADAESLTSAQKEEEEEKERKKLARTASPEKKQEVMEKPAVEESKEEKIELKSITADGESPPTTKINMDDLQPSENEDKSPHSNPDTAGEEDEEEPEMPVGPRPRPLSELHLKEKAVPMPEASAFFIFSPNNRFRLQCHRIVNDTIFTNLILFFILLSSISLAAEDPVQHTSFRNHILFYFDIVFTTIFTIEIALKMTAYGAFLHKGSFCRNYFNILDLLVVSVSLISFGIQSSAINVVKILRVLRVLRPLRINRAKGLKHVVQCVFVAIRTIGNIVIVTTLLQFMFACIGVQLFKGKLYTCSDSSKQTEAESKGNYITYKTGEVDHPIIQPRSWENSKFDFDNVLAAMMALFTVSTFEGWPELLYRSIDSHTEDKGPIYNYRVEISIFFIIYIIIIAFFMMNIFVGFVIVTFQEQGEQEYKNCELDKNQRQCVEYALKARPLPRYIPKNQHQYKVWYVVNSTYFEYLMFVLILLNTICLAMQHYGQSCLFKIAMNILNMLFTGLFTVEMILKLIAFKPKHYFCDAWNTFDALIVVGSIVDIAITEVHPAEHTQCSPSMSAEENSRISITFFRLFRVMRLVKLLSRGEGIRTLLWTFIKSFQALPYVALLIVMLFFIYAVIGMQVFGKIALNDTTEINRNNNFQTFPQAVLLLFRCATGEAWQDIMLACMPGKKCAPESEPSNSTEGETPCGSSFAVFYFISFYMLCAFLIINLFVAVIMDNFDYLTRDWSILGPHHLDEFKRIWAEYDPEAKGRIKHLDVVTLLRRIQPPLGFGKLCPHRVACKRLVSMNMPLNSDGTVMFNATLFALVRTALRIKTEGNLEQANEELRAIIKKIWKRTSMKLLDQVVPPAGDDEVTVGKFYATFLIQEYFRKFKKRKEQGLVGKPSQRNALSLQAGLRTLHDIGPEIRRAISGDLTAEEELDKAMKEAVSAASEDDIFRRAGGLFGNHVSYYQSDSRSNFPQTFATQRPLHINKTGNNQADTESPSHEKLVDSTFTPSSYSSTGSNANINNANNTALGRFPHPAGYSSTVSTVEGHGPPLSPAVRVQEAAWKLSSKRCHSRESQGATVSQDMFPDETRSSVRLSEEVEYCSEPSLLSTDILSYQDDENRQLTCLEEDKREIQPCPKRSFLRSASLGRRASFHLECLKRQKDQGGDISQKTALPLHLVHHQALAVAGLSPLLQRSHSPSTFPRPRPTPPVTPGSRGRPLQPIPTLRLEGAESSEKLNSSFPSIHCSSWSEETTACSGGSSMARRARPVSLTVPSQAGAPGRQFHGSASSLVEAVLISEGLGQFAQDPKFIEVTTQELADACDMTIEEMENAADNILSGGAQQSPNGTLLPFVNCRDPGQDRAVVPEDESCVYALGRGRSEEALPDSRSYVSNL

Biological target: small-conductance Ca2+-activated K+ channel SK2 (rat (endogenous in rat ventricular myocytes)) (UniProt P70604)
Test: native gel or EMSA; blue native PAGE (NativePAGE 4-16% Bis-Tris) of the solubilised membrane fraction of freshly isolated Sham and TAB rat ventricular myocytes; blots probed for SK2, Cav1.2α1c and Na+/K+-ATPase (loading control)

For “Cav1.2α1c L-type Ca2+ channel (LTCC) subunit (from UniProt P22002 1-2169)”, the binding was “binds”.
